# “And” between values parts separate entries of the source, which are not always exact repeats. Equal values may be shown once. Inconclusive results, whose numbers are uncertain, are shown with a selection of clear calls. For some assays here: A potency beside an inconclusive call is a rough fit, not a confirmed value. The source holds several records for some structures; these can differ, active in one and inactive in another. The source made the active and inactive calls. Unless noted, calls follow the shape of the full dose curve.
# By UniProt entry, the sequences of proteins in these tests, tags left out. Where a name states a change or a piece, a line headed by the entry shows the natural chain unless it says otherwise.
# UniProt P30968: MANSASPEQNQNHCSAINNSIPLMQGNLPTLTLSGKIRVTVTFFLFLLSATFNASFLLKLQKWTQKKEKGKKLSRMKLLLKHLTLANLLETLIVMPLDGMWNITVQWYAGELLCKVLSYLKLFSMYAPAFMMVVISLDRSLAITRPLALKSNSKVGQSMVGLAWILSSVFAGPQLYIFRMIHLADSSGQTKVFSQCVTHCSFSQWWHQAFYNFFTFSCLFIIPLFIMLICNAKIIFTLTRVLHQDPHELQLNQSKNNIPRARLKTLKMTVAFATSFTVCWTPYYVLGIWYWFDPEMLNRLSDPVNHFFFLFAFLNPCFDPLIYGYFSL
# UniProt Q969F8, whole entry, looked up: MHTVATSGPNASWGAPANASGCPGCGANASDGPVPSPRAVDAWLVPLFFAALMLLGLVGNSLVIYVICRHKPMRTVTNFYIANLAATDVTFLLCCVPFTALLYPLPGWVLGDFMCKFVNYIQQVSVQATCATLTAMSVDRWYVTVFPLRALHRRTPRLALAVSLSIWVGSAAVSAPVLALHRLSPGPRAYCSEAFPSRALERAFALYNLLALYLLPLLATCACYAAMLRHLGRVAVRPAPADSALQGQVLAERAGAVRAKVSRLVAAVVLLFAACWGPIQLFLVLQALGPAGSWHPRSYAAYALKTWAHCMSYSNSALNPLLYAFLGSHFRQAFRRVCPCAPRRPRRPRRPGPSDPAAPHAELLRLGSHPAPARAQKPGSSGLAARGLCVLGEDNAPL
# UniProt P28223, whole entry, looked up: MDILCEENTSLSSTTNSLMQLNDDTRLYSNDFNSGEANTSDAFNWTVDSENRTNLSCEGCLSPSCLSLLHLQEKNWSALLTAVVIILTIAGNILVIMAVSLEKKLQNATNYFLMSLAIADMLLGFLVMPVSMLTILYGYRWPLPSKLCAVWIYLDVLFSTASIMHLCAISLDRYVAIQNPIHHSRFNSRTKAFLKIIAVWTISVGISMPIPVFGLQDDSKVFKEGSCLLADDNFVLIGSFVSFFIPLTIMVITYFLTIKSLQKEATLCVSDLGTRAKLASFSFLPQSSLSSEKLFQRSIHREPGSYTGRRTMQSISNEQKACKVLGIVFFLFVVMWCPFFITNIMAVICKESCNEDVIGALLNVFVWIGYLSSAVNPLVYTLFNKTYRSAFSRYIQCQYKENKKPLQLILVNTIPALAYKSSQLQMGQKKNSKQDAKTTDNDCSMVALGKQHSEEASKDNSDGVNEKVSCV
# UniProt P11229: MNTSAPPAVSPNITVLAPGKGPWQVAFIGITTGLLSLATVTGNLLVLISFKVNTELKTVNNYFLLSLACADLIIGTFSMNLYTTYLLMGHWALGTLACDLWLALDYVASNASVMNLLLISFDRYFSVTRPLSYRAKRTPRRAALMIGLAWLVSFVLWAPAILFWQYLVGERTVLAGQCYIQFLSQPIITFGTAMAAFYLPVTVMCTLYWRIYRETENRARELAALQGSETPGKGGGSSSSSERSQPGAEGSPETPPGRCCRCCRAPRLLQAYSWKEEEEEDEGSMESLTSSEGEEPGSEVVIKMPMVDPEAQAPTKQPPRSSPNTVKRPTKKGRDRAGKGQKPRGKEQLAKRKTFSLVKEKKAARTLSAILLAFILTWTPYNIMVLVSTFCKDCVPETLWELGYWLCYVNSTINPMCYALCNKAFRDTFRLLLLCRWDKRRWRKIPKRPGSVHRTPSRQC
# UniProt P14416, whole entry, looked up: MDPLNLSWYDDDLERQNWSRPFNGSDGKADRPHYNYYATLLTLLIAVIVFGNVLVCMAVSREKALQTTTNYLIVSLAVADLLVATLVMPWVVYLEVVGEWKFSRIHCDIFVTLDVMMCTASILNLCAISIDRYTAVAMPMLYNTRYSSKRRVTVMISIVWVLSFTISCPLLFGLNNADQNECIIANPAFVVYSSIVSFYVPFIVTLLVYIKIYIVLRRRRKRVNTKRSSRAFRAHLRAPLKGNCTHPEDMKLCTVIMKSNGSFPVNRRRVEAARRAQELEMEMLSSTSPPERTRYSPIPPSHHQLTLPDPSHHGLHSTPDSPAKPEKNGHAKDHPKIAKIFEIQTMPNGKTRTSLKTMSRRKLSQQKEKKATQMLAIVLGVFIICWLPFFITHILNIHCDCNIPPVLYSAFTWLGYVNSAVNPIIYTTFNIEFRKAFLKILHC
# How the values were obtained:
# [1] = Nuclear factor erythroid 2-related factor 2/antioxidant responsive element (Nrf2/ARE) small molecule agonists: luciferase reporter gene qHTS assay in human keratinocytes (AID 1919969); details: KeratinoSens HaCaT ARE-luciferase, luminescence, 24 h; activity, positive = activation: at 92.4 µM (top of the series); also: nearly all actives have a fitted effect of over 35% in size; also: potency is read from the fitted curve at half-maximal effect
# [2] = target: Gonadotropin-releasing hormone receptor (Homo sapiens) (UniProt P30968); assay: Human gonadotropin-releasing hormone receptor (GnRHR) small molecule agonists, calcium flux assay in GnRHR-HEK293 cells (AID 1920063); details: calcium flux fluorescence, agonist mode; activity change: at 57.6 µM (top of the series), stronger effect = higher value unless noted; also: nearly all actives have a fitted effect of over 35% in size; also: potency is read from the fitted curve at half-maximal effect; as to activity change: % is scaled to controls: 0 for no effect and ±100 for the full control effect
# Outline: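 HEK293 cells stably expressing human GnRHR were dye-loaded for 1 h at 37 C. Compound was added in agonist mode and fluorescence (Ex/Em 480/540) recorded kinetically for 3 min. Fifteen concentrations, triplicates.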
# [3] = target: KiSS-1 receptor (Homo sapiens) (UniProt Q969F8); assay: Human kisspeptin (KISS1R) small molecule agonists, calcium flux assay in KISS1R-HEK293 cells (AID 1920064; active = well fitted curve in the direction sought with a large enough effect in the repeat runs; inconclusive = weak or mixed curves; inactive = no such curve, though single readings can be large; an effect the other way counts as inactive or inconclusive; also: potency is read from the fitted curve at half-maximal effect)
# Outline: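 HEK293 cells stably expressing human KISS1R were loaded with calcium dye for 1 h at 37 C, then given compound; fluorescence (Ex/Em 480/540) was read kinetically for 3 min. Fifteen concentrations, triplicate.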
# [4] = p53 small molecule agonists, cell-based qHTS assay with human liver microsomes (AID 1963577); details: HCT-116 p53RE-bla with human liver microsomes, ratio, 16 h; activation: at 66 µM (top of the series) unless noted; also: potency is read from the fitted curve at half-maximal effect
# Outline: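 p53RE-bla cells, 4,000/well, compound added after 5 h, with human liver microsomes 0.5 mg/mL and NADPH 0.5 mg/mL final; 16 h at 37 C, then LiveBLAzer 2 h RT, fluorescence.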
# [5] = p53 small molecule agonists, cell-based qHTS assay (AID 1963582; active = well fitted activation curve with a large enough effect in the signal ratio in the repeat runs, not every such curve was filed as active; inconclusive = weak or mixed curves; the % refers to the signal ratio; also: potency is read from the fitted curve at half-maximal effect; as to activation: % is scaled to controls: 0 for no effect and ±100 for the full control effect); details: HCT-116 p53RE-bla reporter, beta-lactamase FRET ratio, 16 h; activation: at 66 µM (top of the series) unless noted
# Outline: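 p53RE-bla reporter cells, compounds added in DMSO after 5 h plating, incubated 16 h at 37 C. Beta-lactamase read via 2 h room-temperature LiveBLAzer B/G FRET substrate, fluorescence intensity.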
# [6] = target: 5-hydroxytryptamine receptor 2A (Homo sapiens) (UniProt P28223); assay: 5-hydroxytryptamine receptor 2A (HTR2A) small molecule antagonists, cell-based qHTS assay (AID 1963586); also: potency is read from the fitted curve at half-maximal effect; nearly all actives have a fitted effect of over 45% in size
# Outline: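 Antagonist-mode intracellular calcium assay: DOI (4 nM) added after 5 min compound pre-incubation at room temperature to dye-loaded HTR2A-CHO cells. Fluorescence followed for 3 min, sampled every second.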
# [7] = target: 5-hydroxytryptamine receptor 2A (Homo sapiens) (UniProt P28223); assay: 5-hydroxytryptamine receptor 2A (HTR2A) small molecule agonists, cell-based qHTS assay (AID 1963587); also: potency is read from the fitted curve at half-maximal effect; nearly all actives have a fitted effect of over 30% in size
# Outline: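 CHO cells stably expressing human HTR2A, plated 18 h, loaded with calcium dye 1 h at 37 C. Agonist mode: compounds added and intracellular calcium fluorescence recorded kinetically for 2 min at 1 sec intervals.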
# [8] = target: Muscarinic acetylcholine receptor M1 (Homo sapiens) (UniProt P11229); assay: Cholinergic receptor muscarinic 1 (CHRM1) small molecule antagonists, cell-based qHTS assay (AID 1963588); also: potency is read from the fitted curve at half-maximal effect; nearly all actives have a fitted effect of over 40% in size
# Outline: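 CHRM1-CHO calcium-flux assay, antagonist mode. Cells were seeded 18 h, dye-loaded 1 h at 37 C and given compound for 5 min at RT, then acetylcholine was added at 50nM. FDSS fluorescence was read 3 min; 15 concentrations, three runs.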
# [9] = target: Beta-2 adrenergic receptor (Homo sapiens) (UniProt P07550); assay: Adrenergic beta2 receptor (ADRB2) small molecule antagonists, cell-based qHTS assay (AID 1963592); details: CHO-ADRB2 cells, isoproterenol-stimulated cAMP HTRF ratio, 0.5 h; also: % is scaled to controls: 0 for no effect and ±100 for the full control effect; nearly all actives have a fitted effect of over 50% in size
# Outline: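 Cells (CHO, stable ADRB2 overexpression) incubated 18-20hr at 37C; compounds added from DMSO; agonist mix (1nM isoproterenol, 100uM IBMX, 25uM Ro-20-1724) added; 0.5hr RT; d2-cAMP and anti-cAMP-cryptate added; 1hr RT; 665/615 nm read.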
# [10] = target: Beta-2 adrenergic receptor (Homo sapiens) (UniProt P07550); assay: Adrenergic beta2 receptor (ADRB2) small molecule agonists, cell-based qHTS assay (AID 1963593); details: CHO-ADRB2 cells, cAMP HTRF, 30 min; also: potency is read from the fitted curve at half-maximal effect;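 as to activation: CHO cells stably overexpressing human ADRB2; % is scaled to controls: 0 for no effect and ±100 for the full control effect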
# Outline: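 CHO cells stably over-expressing ADRB2 were plated overnight at 37C, then dosed with compounds plus a stimulation mix containing 100uM IBMX and 25uM Ro-20-1724 for 0.5hr at room temperature. cAMP was measured by HTRF competition, 1hr.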
# [11] = target: D(2) dopamine receptor (Homo sapiens) (UniProt P14416); assay: Dopamine D2 receptor (DRD2) small molecule agonists, cell-based qHTS assay (AID 1963594); details: HEK293-DRD2 cAMP HTRF, agonist mode, 30 min; activation: at 92.4 µM (top of the series) unless noted; also: nearly all actives have a fitted effect of over 35% in size; also: potency is read from the fitted curve at half-maximal effect; as to activation: % is scaled to controls: 0 for no effect and ±100 for the full control effect
# Outline: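 HEK293 cells stably expressing human DRD2, pre-treated with PDE inhibitor Ro20-1724 (0.1 mM final) and compound 10 min at room temperature, then stimulated with NKH477 (200nM […]) for 30 min. cAMP read by HTRF (665/620 nm).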
# [12] = target: D(2) dopamine receptor (Homo sapiens) (UniProt P14416); assay: Dopamine D2 receptor (DRD2) small molecule antagonists, cell-based qHTS assay (AID 1963595; active = well fitted inhibition curve with a large enough effect in the signal ratio in the repeat runs, with a control signal flat; inconclusive = weak or mixed curves, or effect the other way; the % refers to the signal ratio; also: potency is read from the fitted curve at half-maximal effect); details: HEK293-DRD2 cAMP HTRF antagonist mode; activity change, negative = inhibition: at 92.4 µM (top of the series) unless noted
# Outline: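 Human DRD2 antagonist qHTS measuring cAMP by HTRF. The cells are exposed to compound for 10 min, then to NKH477 (200 nM) and quinpirole (12 nM) for 30 min at RT, with Ro20-1724 (0.1 mM) present throughout.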
# [13] = Nuclear factor erythroid 2-related factor 2/antioxidant responsive element (Nrf2/ARE) small molecule agonists: qHTS cell viability counter screen in human keratinocytes (AID 1919968; active = well fitted curve in the direction sought with a large enough effect in the repeat runs; inconclusive = weak or mixed curves; inactive = no such curve, though single readings can be large; an effect the other way counts as inactive or inconclusive; also: nearly all actives have a fitted effect of over 55% in size; also: potency is read from the fitted curve at half-maximal effect)
# Outline: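 KeratinoSens HaCaT cells, 1,500/well, preincubated 5 h, then exposed to compounds in DMSO for 23 h at 37 C/5% CO2. Viability read as CellTiter-Fluor fluorescence after 1 h, in the same wells as the ARE-luciferase read.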
# [14] = cAMP Responsive Elements (CRE) small molecule agonists, cell-based qHTS assay (AID 1963590); details: CRE-bla HEK293T, beta-lactamase FRET ratio, 3 h; activation: at 92.4 µM (top of the series) unless noted; also: potency is read from the fitted curve at half-maximal effect
# Outline: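 CRE-bla HEK 293T cells, 2,000/well in DMEM with 10% dialyzed FBS and 25 mM HEPES, pre-incubated 18 h at 37 C, then exposed to compound 3 h at 37 C. Beta-lactamase reporter read with LiveBLAzer B/G FRET substrate after 2 h at room temperature.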
# [15] = cAMP Responsive Elements (CRE) small molecule antagonists, cell-based qHTS assay (AID 1963591; active = well fitted inhibition curve with a large enough effect in the signal ratio in the repeat runs, not every such curve was filed as active; inconclusive = weak or mixed curves, or effect the other way; the % refers to the signal ratio; also: potency is read from the fitted curve at half-maximal effect); details: CRE-bla HEK293T, beta-lactamase FRET ratio; activity change, negative = inhibition: at 92.4 µM (top of the series) unless noted
# Outline: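 CRE-bla HEK293T cells plated 18 h, then given compound plus NKH477 at 0.25 uM final for 3 h at 37C. Beta-lactamase reporter read with LiveBLAzer B/G FRET substrate after 2 h at room temperature.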
# [16] = activation: at 92.4 µM (top of the series) unless noted
compound,measurement,setting,value
COC(C)(C)CC(C)=O,Potency,[1],"inconclusive: 68.6 µM [activator, single point]"
CCCCCCCCCCCCCC[N+](C)(C)C,Potency,[1],"inconclusive: 0.217 µM [activator, single point]"
same,Potency,[2],"inconclusive: 33.5 µM [activator, single point]"
same,Potency,[3],"inconclusive: 47.3 µM [activator, partial curve, poor fit]"
same,Potency,[4],inconclusive: 22.3 µM [cytotoxic]
same,Potency,[5],"inconclusive: 7.86 µM [fluorescent, full curve, poor fit]"
same,activation,[5],inconclusive: 0.664%
same,Potency,[6],"inconclusive: 8.11 µM [inhibitor, partial curve, poor fit] and inconclusive: 6.66 µM [inhibitor, partial curve, poor fit] and inconclusive: 46 µM [inhibitor, partial curve, poor fit]"
same,Potency,[7],"inconclusive: 53.1 µM [activator, single point] and active: 48.9 µM and inconclusive: 26.8 µM [activator, single point]"
same,Potency,[8],"inconclusive: 407 nM [inhibitor, full curve, poor fit] and active: 941 nM and active: 818 nM"
same,"activity change, negative = inhibition","[9]; activity change, negative = inhibition: at 92.4 µM (top of the series) unless noted",inconclusive: -18.3% [at 42.5 µM]
same,"activity change, negative = inhibition",[9]; at 92.4 µM (top of the series),inactive: -12.9% and inactive: 0.0826%
same,activation,[10]; [16],inconclusive: 4.48% and inconclusive: 30%
same,activation,[10]; at 42.5 µM (top of the series),inactive: -15.9%
same,activation,[11],inconclusive: -24.4% [at 42.5 µM]
same,Potency,[12],"inconclusive: 66.3 µM [inhibitor, single point] and inconclusive: 48.5 µM [inhibitor, partial curve]"
CC(C)C(C)C,Potency,[13],inactive
same,Potency,[11],inactive
O=C(/C=C/c1ccc(O)c(O)c1)O[C@@H](C(=O)O)[C@@H](OC(=O)/C=C/c1ccc(O)c(O)c1)C(=O)O,Potency,[13],"inconclusive: 27.3 µM [cytotoxic, partial curve, poor fit]"
same,Potency,[10]; [16],"inconclusive: 0.967 µM [activator, single point]"
same,Potency,[11],"inconclusive: 66.9 µM [falling, single point]"
same,Potency,[12],inconclusive: 68.5 µM [cytotoxic]
Cc1c(Nc2ncccc2C(=O)O)cccc1C(F)(F)F,Potency,[1],"inconclusive: 29.8 µM [activator, partial curve]"
C/C=C1\[C@H]2C=C(C)C[C@]1(N)c1ccc(=O)[nH]c1C2,Potency,[1],"inconclusive: 13.3 µM [activator, single point]"
C[n+]1ccccc1/C=N/O,Potency,[13],inactive
same,Potency,[10]; [16],inconclusive: 0.0007 µM
same,Potency,[11],inactive
Cn1c(=O)c2c(ncn2CCO)n(C)c1=O,Potency,[1],"inconclusive: 13.3 µM [activator, single point]"
Cc1nn(C)c(Oc2ccccc2)c1/C=N/OCc1ccc(C(=O)OC(C)(C)C)cc1,Potency,[1],"inconclusive: 27.3 µM [activator, partial curve, poor fit]"
same,Potency,[2],inactive
same,Potency,[4],"inconclusive: 45.8 µM [rising, single point]"
same,Potency,[5],"inconclusive: 0.0324 µM [rising, full curve]"
same,Potency,[14],"inconclusive: 0.0273 µM [fluorescent, full curve, poor fit]"
same,Potency,[15],"inconclusive: 34.4 µM [activator, partial curve]"
same,Potency,[10]; [16],inactive
same,Potency,[12],"inconclusive: 30.6 µM [inhibitor, partial curve, poor fit]"
OCC1CC2CC1C1CCC(CO)C21 (stereo unspecified),Potency,[1],inactive
Cc1cc(Cl)c(C)cc1Cl,Potency,[1],"inconclusive: 0.611 µM [activator, single point]"
CCC1C(=O)OCC1Cc1cncn1C (stereo unspecified),Potency,[1],inactive
CCN(Cc1cccc(S(=O)(=O)O)c1)c1ccccc1,Potency,[13],inactive
same,Potency,[10]; [16],"inconclusive: 68.6 µM [falling, partial curve, poor fit]"
same,Potency,[12],"inconclusive: 43.3 µM [falling, partial curve]"
C=C(C)C(=O)OCCCCCCOC(=O)C(=C)C,Potency,[13],inactive
same,Potency,[12],inactive
CCN(CC)CC(=O)Nc1c(C)cccc1C,Potency,[13],inactive
same,Potency,[10]; [16],inactive
same,Potency,[11],inactive
same,Potency,[12],"inconclusive: 33.5 µM [inhibitor, single point]"
CCN(CC)C(=S)SSC(=S)N(CC)CC,Potency,[1],"inconclusive: 96.9 nM [activator, single point] and inconclusive: 6.68 µM [activator]"
same,Potency,[2],"inconclusive: 3.16 µM [activator, full curve, poor fit]"
same,Potency,[3],"inconclusive: 56.2 µM [activator, single point]"
same,Potency,[14],inconclusive: 70.2 µM
same,Potency,[15],"inconclusive: 969 nM [inhibitor, full curve] and inconclusive: 894 nM and active: 1.19 µM"
same,Potency,[10]; [16],inconclusive: 1.4 µM [inhibitor]
same,activation,[10]; [16],inconclusive: -39%
same,activation,[10]; at 42.5 µM (top of the series),inactive: -9.68%

# Looked up one by one from above:
compound,measurement,setting,value
CCCCCCCCCCCCCC[N+](C)(C)C,activation,[10]; [16],inconclusive: 4.48% and inconclusive: 30%
CC(C)C(C)C,Potency,[13],inactive
CCN(Cc1cccc(S(=O)(=O)O)c1)c1ccccc1,Potency,[12],"inconclusive: 43.3 µM [falling, partial curve]"
Cc1cc(Cl)c(C)cc1Cl,Potency,[1],"inconclusive: 0.611 µM [activator, single point]"
CCCCCCCCCCCCCC[N+](C)(C)C,Potency,[5],"inconclusive: 7.86 µM [fluorescent, full curve, poor fit]"
